Results: patent CN117425675A
No constants are given. Whether binding was seen depends on the method and setting. Some results given as binding are weak or reduced against the parent protein; the word gives no strength.

The chains behind the UniProt entries cited, without tags or fusion partners. Where a name states a change or a piece, a line headed by the entry shows the natural chain unless it says otherwise.
UniProt P20333: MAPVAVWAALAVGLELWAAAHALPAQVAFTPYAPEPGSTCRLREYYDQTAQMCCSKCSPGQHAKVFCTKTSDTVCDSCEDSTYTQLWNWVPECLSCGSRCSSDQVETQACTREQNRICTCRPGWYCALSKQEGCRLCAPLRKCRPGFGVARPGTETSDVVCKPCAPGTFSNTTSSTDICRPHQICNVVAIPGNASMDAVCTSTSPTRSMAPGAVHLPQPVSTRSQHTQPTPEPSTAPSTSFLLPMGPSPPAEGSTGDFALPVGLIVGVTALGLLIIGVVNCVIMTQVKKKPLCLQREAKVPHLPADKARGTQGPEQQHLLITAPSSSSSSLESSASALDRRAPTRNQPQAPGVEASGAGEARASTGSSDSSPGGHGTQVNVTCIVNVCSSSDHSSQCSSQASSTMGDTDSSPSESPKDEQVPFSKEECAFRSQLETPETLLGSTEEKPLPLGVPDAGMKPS

Legend:
[1] = target: human TNFR2 expressed on cells (stably overexpressed on HEK293T, CHO-K1 or Jurkat cells; endogenous on THP1) (human (Homo sapiens)) (UniProt P20333); test: cell binding (flow cytometry / imaging)
[2] = target: human TNFR2 expressed on cells (stably overexpressed on HEK293T, CHO-K1 or Jurkat cells; endogenous on THP1) (human (Homo sapiens)) (UniProt P20333); test: flow cytometry on HEK293T cells stably overexpressing human TNFR2

B1: R2_mAb-3 (antibody, V domains shown)
VH: QVQLQESGPGLVKPSETLSLTCTVSGGSISSYYWSWIRQAPGKGLEWIGYIYYSGSTNYNPSLKSRVTISVDTSKNQFSLKLSSVTAADTAVYYCARDDGSSDYGMDVWGQGTTVTVSS
VL: AIQLTQSPSSLSASVGDRVTITCRASQGISSALAWYQQKPGKAPKLLIYDASSLESGVPSRFTGSGTDFTLTISSLQPEDFATYYCQQFNNYMYTFGQGTKLEIK
**Q.** B1 was tested. Which binding [1] did it give?
**A.** binds

**Q.** And the binding [2]?
**A.** binds
